At least one compound was matched to its structure with a doubt left.
Legend:
GLP-1R = target: T1, GLP-1R (Homo sapiens, UniProt P43220); assay: GLP-1 activity test (cAMP, chemiluminescence, CHO-K1 cell line stably expressing GLP-1R); type: cell-based; details: relative luminescence units, read-out: GLP-1 activity [EC50(pmol)]
T1 construct: expressed in transfected cells; host or cells: CHO-K1
Description: (§1) Upon stimulation by a specific agonist, GLP-1R activates the intracellular adenylate cyclase signaling pathway, resulting in an increase in cAMP levels and ultimately leading to insulin production and secretion. A cell line stably transfected with GLP-1R was stimulated with test compounds, thereby rapidly increasing intracellular cAMP levels. The relative luminescence units (RLU) of cells stimulated at various concentrations were measured by a chemiluminescence method, and the EC50 value of the agonist was calculated accordingly. This activity test method is currently a commonly used method for evaluating GLP-1 receptor agonist activity both domestically and internationally.
A CHO-K1 cell line stably expressing GLP-1R was used. The stable cells were stimulated with agonists at different concentrations, and the relative luminescence units after stimulation at each concentration were measured to calculate the EC50 value of the agonist.

Amino acid sequences for entries named in this document (tags omitted). Residues count along the entry.
UniProt P43220, 24-463, species assumed: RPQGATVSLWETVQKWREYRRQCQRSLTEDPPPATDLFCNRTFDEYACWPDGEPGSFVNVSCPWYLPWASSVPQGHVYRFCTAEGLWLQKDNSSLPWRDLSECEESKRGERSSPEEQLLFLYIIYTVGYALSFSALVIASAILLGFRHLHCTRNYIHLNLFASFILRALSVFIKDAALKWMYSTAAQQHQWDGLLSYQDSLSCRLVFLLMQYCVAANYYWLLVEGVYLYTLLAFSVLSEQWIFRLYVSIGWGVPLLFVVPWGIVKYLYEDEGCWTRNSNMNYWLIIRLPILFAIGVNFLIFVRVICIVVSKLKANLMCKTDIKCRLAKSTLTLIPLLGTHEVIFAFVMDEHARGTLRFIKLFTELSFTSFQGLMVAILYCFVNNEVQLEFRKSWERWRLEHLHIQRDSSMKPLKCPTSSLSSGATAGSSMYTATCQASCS
UniProt P47871, 26-477, species assumed: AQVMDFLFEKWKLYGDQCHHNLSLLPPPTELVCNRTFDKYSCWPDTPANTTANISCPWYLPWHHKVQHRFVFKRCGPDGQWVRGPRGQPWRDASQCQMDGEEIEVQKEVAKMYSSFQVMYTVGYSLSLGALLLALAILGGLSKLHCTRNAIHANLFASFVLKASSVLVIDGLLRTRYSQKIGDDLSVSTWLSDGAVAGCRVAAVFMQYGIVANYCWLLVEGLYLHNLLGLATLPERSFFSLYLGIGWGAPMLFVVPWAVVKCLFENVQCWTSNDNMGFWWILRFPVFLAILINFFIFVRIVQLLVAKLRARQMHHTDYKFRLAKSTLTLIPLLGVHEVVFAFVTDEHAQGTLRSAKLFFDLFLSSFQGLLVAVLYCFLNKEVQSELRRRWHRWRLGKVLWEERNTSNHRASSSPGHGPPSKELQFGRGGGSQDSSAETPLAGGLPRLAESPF

GCG-R = target: T2, GCG-R (Homo sapiens, UniProt P47871); assay: GCG activity test (cAMP, chemiluminescence, CHO-K1 cell line stably expressing GCG-R); type: cell-based; details: relative luminescence units, read-out: GCG activity [EC50(nmol)]
T2 construct: expressed in transfected cells; host or cells: CHO-K1
Description: as §1, with “agonist, GCG-R” for “agonist, GLP-1R”, “with GCG-R” for “with GLP-1R”, “activity assay” for “activity test”, “evaluating GCG” for “evaluating GLP-1”
A CHO-K1 cell line stably expressing GCG-R was used. The stable cells were stimulated with agonists at different concentrations, and the relative luminescence units after stimulation at each concentration were measured to calculate the EC50 value of the agonist.

`CC(C)C[C@H](NC(=O)[C@H](CC(C)C)NC(=O)[C@H](Cc1c[nH]c2ccccc12)NC(=O)[C@H](CCC(=O)O)NC(=O)[C@@H](NC(=O)[C@H](Cc1ccccc1)NC(=O)[C@H](CCC(=O)O)NC(=O)[C@H](CCCCNC(=O)COCCOCCNC(=O)COCCOCCNC(=O)CC[C@H](NC(=O)CCCCCCCCCCCCCCCCCCC(=O)O)C(=O)O)NC(=O)[C@H](C)NC(=O)[C@H](CCCCN)NC(=O)[C@H](CCCCN)NC(=O)[C@H](CCC(=O)O)NC(=O)[C@H](CC(=O)O)NC(=O)[C@H](CC(C)C)NC(=O)[C@H](Cc1ccc(O)cc1)NC(=O)[C@H](CCCCN)NC(=O)[C@H](CO)NC(=O)[C@H](Cc1ccc(O)cc1)NC(=O)[C@H](CC(=O)O)NC(=O)[C@H](CO)NC(=O)[C@@H](NC(=O)[C@H](Cc1ccccc1)NC(=O)[C@@H](NC(=O)CNC(=O)[C@H](CCC(N)=O)NC(=O)C(C)(C)NC(=O)[C@@H](N)Cc1c[nH]cn1)[C@@H](C)O)[C@@H](C)O)C(C)C)C(=O)N[C@@H](CCC(=O)O)C(=O)NCC(=O)NCC(=O)N1CCC[C@H]1C(=O)N[C@@H](CO)C(=O)N[C@@H](CO)C(=O)NCC(N)=O` [Reference substance OXM3, reference compound] gave an EC50 (GLP-1R) of 0.208 nM and an EC50 (GCG-R) of 3 nM.

From patent EP4806912A1, “DUAL AGONIST COMPOUND” (Chengdu Aoda Biotechnology Co., Ltd, priority 2023, dated 2025)
